Measurements reported in PubChem BioAssay AID504793 (Drosophila RNAi Screening Center, 2011).
The deposit covers about 23,000 reagents; this is a random part of those with a known target gene and a result. Of all reagents, 62 (0.27%) were called active. 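Calls come from follow-up tests whose scores are not deposited, so confirmed genes may have low counts here; counts are not normalised per plate.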 The raw values are shown without normalisation.

- Aim: 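Knock-downs allowing continued mitosis even though DNA is damaged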 (primary screen)
- Cell system: Drosophila S2R+ cells
- Knock-down reagent: long dsRNA against Drosophila genes, about 0.25 µg dsRNA per well
- Duration: 4 days of dsRNA, then 4 hours of drug before read-out
- Conditions: doxorubicin 0.5 µM for 4 hours to cause double-strand breaks, in cells also given a low, harmless dose of dsRNA against nbs to sensitise the assay
- Detection: 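Mitotic index as the number of phospho-histone H3-positive cells in each well following doxorubicin, given as raw counts without normalisation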
- Reading the numbers: mitotic cells: higher = more cells in mitosis, weaker G2 arrest
- Rule for the call: 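Genes are called active only when high mitotic counts were reproduced with independent dsRNAs and mitosis was checked for delay without damage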
- Meaning of the calls: active = confirmed in follow-up tests; inactive = not confirmed

| gene | PubChem SID | mitotic cells, replicate 1 | mitotic cells, replicate 2 | activity call |
| --- | --- | --- | --- | --- |
| CG6094 | SID104182719 | 8 | – | inactive |
| CG6094 | SID104202090 | 8 | – | inactive |
| CG6094 | SID104207628 | 2 | – | inactive |
| CG9673 | SID104199994 | 4 | – | inactive |
| CG14234 | SID104199109 | 27 | – | inactive |
| CG14234 | SID104199381 | 4 | – | inactive |
| Cht2 (Chitinase 2) | SID104188442 | 10 | – | inactive |
| Cht2 (Chitinase 2) | SID104203407 | 4 | – | inactive |
| CG31551 | SID104191951 | 11 | – | inactive |
| CG31551 | SID104201880 | 5 | – | inactive |
| CG31551 | SID104206352 | 6 | – | inactive |
| Sox21b | SID104202362 | 14 | – | inactive |
| Sox21b | SID104204347 | 5 | – | inactive |
| CG30383 | SID104184854 | 1 | – | inactive |
| CG31296 | SID104192884 | 14 | – | inactive |
| olf413 | SID104191335 | 17 | – | inactive |
| olf413 | SID104191471 | 6 | 11 | inactive |
| olf413 | SID104191513 | 5 | – | inactive |
| olf413 | SID104191625 | 8 | – | inactive |
| CG4815 | SID104195445 | 14 | – | inactive |
| CG44422 | SID104198677 | 5 | – | inactive |
| CG44422 | SID104199172 | 3 | – | inactive |
| CG44422 | SID104202641 | 15 | – | inactive |
| SerT (Serotonin transporter) | SID104184447 | 3 | – | inactive |
| SerT (Serotonin transporter) | SID104207478 | 10 | – | inactive |
| Hydr1 (alpha/beta hydrolase 1) | SID104186855 | 6 | – | inactive |
| Gfrl (Glial cell line-derived neurotrophic family receptor-like) | SID104194989 | 7 | – | inactive |
| Gfrl (Glial cell line-derived neurotrophic family receptor-like) | SID104194991 | 8 | – | inactive |
| Gfrl (Glial cell line-derived neurotrophic family receptor-like) | SID104195357 | 13 | – | inactive |
| Gfrl (Glial cell line-derived neurotrophic family receptor-like) | SID104195511 | 7 | – | inactive |
| Gfrl (Glial cell line-derived neurotrophic family receptor-like) | SID104203931 | 4 | – | inactive |
| Gfrl (Glial cell line-derived neurotrophic family receptor-like) | SID104204676 | 9 | – | inactive |
| Gfrl (Glial cell line-derived neurotrophic family receptor-like) | SID104206354 | 11 | – | inactive |
| Gfrl (Glial cell line-derived neurotrophic family receptor-like) | SID104207352 | 4 | – | inactive |
| Phf7 (PHD finger protein 7) | SID104202778 | 4 | – | inactive |
| Ptp10D (Protein tyrosine phosphatase 10D) | SID104200064 | 14 | – | inactive |
| XNP | SID104195386 | 7 | – | inactive |
| XNP | SID104205829 | 5 | – | inactive |
| Axs (Abnormal X segregation) | SID104199125 | 11 | – | inactive |
| GlcAT-I (Glucuronyltransferase I) | SID104197099 | 4 | – | inactive |
| CG3598 | SID104198263 | 6 | – | inactive |
| CG3598 | SID104205369 | 7 | – | inactive |
| Tango9 (Transport and Golgi organization 9) | SID104193965 | 7 | – | inactive |
| CG9825 | SID104184361 | 3 | – | inactive |
| CG9825 | SID104204178 | 7 | – | inactive |
